## Cleaved PARP after 72 h of treatment

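Human melanoma cell lines in 1,536-well plates were treated with two drugs together for 72 h, then fixed, stained and imaged. The read-out is the fraction of cleaved-PARP-positive nuclei, in % of that fraction in the DMSO control; 200 means twice the control level of this apoptosis marker. Concentrations were fixed for each drug; these are the higher of two levels. These are primary screening values without error estimates. Basal and induced levels differ widely between cell lines.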
This is part of the screen, not chosen by result.
An entry leaves out what has no value listed here.
A dash means that no value is listed here.

Compounds and concentrations:
OSI-906, 2000 nM: C[C@]1(O)C[C@@H](c2nc(-c3ccc4ccc(-c5ccccc5)nc4c3)c3c(N)nccn32)C1
crizotinib, 1000 nM: C[C@@H](Oc1cc(-c2cnn(C3CCNCC3)c2)cnc1N)c1c(Cl)ccc(F)c1Cl
sorafenib, 2000 nM: CNC(=O)c1cc(Oc2ccc(NC(=O)Nc3ccc(Cl)c(C(F)(F)F)c3)cc2)ccn1
T0901317, 7000 nM: O=S(=O)(c1ccccc1)N(CC(F)(F)F)c1ccc(C(O)(C(F)(F)F)C(F)(F)F)cc1
SNS-314, 4 nM: O=C(Nc1cccc(Cl)c1)Nc1ncc(CCNc2ncnc3ccsc23)s1
lenalidomide, 5000 nM: Nc1cccc2c1CN(C1CCC(=O)NC1=O)C2=O (configuration not stated)
AS-252424, 5000 nM: O=C1NC(=O)/C(=C/c2ccc(-c3ccc(F)cc3O)o2)S1
tozasertib, 30 nM: Cc1cc(Nc2cc(N3CCN(C)CC3)nc(Sc3ccc(NC(=O)C4CC4)cc3)n2)n[nH]1
ENMD-2076, 200 nM: Cc1cc(Nc2cc(N3CCN(C)CC3)nc(/C=C/c3ccccc3)n2)n[nH]1
erlotinib, 4000 nM: C#Cc1cccc(Nc2ncnc3cc(OCCOC)c(OCCOC)cc23)c1
pioglitazone, 10000 nM: CCc1ccc(CCOc2ccc(CC3SC(=O)NC3=O)cc2)nc1 (configuration not stated)
LFM-A13, 10000 nM: C/C(O)=C(\C#N)C(=O)Nc1cc(Br)ccc1Br

- AS-252424 + lenalidomide : G-361: 73.8; RPMI-7951: 214; SK-MEL-5: 331; WM115: 167; WM1745: 89.9; C32: 95.7; MEL-HO: 46.4; COLO 800: 93.7
- pioglitazone + T0901317 : G-361: 25.9; RPMI-7951: 77.2; SK-MEL-5: 105; WM115: 234; WM1745: 298; C32: 105; MEL-HO: 56.9; COLO 800: 45.0
- crizotinib + lenalidomide : G-361: 63.2; RPMI-7951: 21.6; SK-MEL-5: 149; WM115: 175; WM1745: 348; C32: 100; MEL-HO: 144; COLO 800: 206
- tozasertib + T0901317 : G-361: 141; RPMI-7951: 169; SK-MEL-5: 321; WM115: 42.9; C32: 110; MEL-HO: 147; COLO 800: 337
- LFM-A13 + AS-252424 : G-361: 65.0; RPMI-7951: 50.6; SK-MEL-5: 80.9; WM115: 40.7; WM1745: 70.6; C32: 89.4; MEL-HO: 36.8; COLO 800: 48.9
- sorafenib + tozasertib : G-361: 27.2; RPMI-7951: 156; SK-MEL-5: 177; WM115: 177; WM1745: 153; C32: 228; MEL-HO: 40.7; COLO 800: 289
- tozasertib + pioglitazone : G-361: 126; RPMI-7951: 142; SK-MEL-5: 183; WM115: 66.4; C32: 61.2; MEL-HO: 84.0; COLO 800: 352
- SNS-314 + T0901317 : G-361: 228; RPMI-7951: 184; SK-MEL-5: 56.2; WM115: 238; WM1745: 289; C32: 143; MEL-HO: 226; COLO 800: 304
- sorafenib + AS-252424 : G-361: 152; RPMI-7951: 132; SK-MEL-5: 72.0; WM115: 108; C32: 71.5; MEL-HO: 114; COLO 800: 52.2
- SNS-314 + sorafenib : G-361: 129; RPMI-7951: 83.8; SK-MEL-5: 101; WM115: 172; WM1745: 155; C32: 135; MEL-HO: 105; COLO 800: 326
- SNS-314 + crizotinib : G-361: 101; RPMI-7951: 129; SK-MEL-5: 55.0; WM115: 658; WM1745: 122; C32: 276; MEL-HO: 91.4; COLO 800: 127
- LFM-A13 + OSI-906 : G-361: 230; RPMI-7951: 139; SK-MEL-5: 53.8; WM115: 129; C32: 158; MEL-HO: 47.8; COLO 800: 61.2
- LFM-A13 + ENMD-2076 : G-361: 95.2; RPMI-7951: 69.2; SK-MEL-5: 395; WM115: 298; C32: 75.1; MEL-HO: 45.8; COLO 800: 205
- tozasertib + AS-252424 : G-361: 102; RPMI-7951: 86.3; SK-MEL-5: 199; WM115: 218; C32: 79.4; MEL-HO: 151; COLO 800: 206
- erlotinib + LFM-A13 : G-361: 182; RPMI-7951: 103; SK-MEL-5: 175; WM115: 107; WM1745: 157; C32: 90.9; MEL-HO: 59.4; COLO 800: 151
- lenalidomide + LFM-A13 : G-361: 60.3; RPMI-7951: 111; SK-MEL-5: 142; WM115: 94.6; WM1745: 105; C32: 79.4; MEL-HO: 41.9; COLO 800: 129
- sorafenib + ENMD-2076 : G-361: 129; RPMI-7951: 166; SK-MEL-5: 281; WM115: 314; WM1745: 173; C32: 80.3; MEL-HO: 82.0; COLO 800: 53.7
- erlotinib + crizotinib : G-361: 168; RPMI-7951: 78.0; SK-MEL-5: 113; WM115: 497; WM1745: 189; C32: 64.9; MEL-HO: 91.1; COLO 800: 69.3
- sorafenib + T0901317 : G-361: 213; RPMI-7951: 148; SK-MEL-5: 63.3; WM115: 53.7; C32: 85.1; MEL-HO: 70.8; COLO 800: 36.0
- SNS-314 + erlotinib : G-361: 170; RPMI-7951: 308; SK-MEL-5: 123; WM115: 451; WM1745: 218; C32: 55.9; MEL-HO: 52.9; COLO 800: 215
- T0901317 + lenalidomide : G-361: 127; RPMI-7951: 74.3; SK-MEL-5: 255; WM115: 50.8; WM1745: 120; C32: 163; MEL-HO: 187; COLO 800: 98.3
- ENMD-2076 + pioglitazone : G-361: 55.6; RPMI-7951: 127; SK-MEL-5: 227; WM115: 303; C32: 88.9; MEL-HO: 181; COLO 800: 107
- T0901317 + ENMD-2076 : G-361: 82.7; RPMI-7951: 110; SK-MEL-5: 141; WM115: 140; C32: 99.2; MEL-HO: 126; COLO 800: 83.7
- lenalidomide + pioglitazone : G-361: 80.4; RPMI-7951: 75.9; SK-MEL-5: 70.7; WM115: 112; WM1745: 131; C32: 101; MEL-HO: 134; COLO 800: 69.3
- OSI-906 + ENMD-2076 : G-361: 150; RPMI-7951: 139; SK-MEL-5: 200; WM115: 178; WM1745: 215; C32: 350; MEL-HO: 45.1; COLO 800: 109
- crizotinib + AS-252424 : G-361: 57.3; RPMI-7951: 92.2; SK-MEL-5: 128; WM115: 173; C32: 80.6; MEL-HO: 91.6; COLO 800: 91.5
- SNS-314 + LFM-A13 : G-361: 78.2; RPMI-7951: 126; SK-MEL-5: 149; WM115: 235; WM1745: 187; C32: 124; MEL-HO: 75.7; COLO 800: 104
- sorafenib + OSI-906 : G-361: 55.0; RPMI-7951: 164; SK-MEL-5: 161; WM115: 116; WM1745: 128; C32: 195; MEL-HO: 270; COLO 800: 48.5
- AS-252424 + erlotinib : G-361: 77.6; RPMI-7951: 101; SK-MEL-5: 283; WM115: 257; WM1745: 206; C32: 89.9; MEL-HO: 62.4; COLO 800: 59.8
- SNS-314 + lenalidomide : G-361: 207; RPMI-7951: 102; SK-MEL-5: 288; WM115: 270; WM1745: 122; C32: 136; MEL-HO: 171; COLO 800: 211
- ENMD-2076 + SNS-314 : G-361: 99.4; RPMI-7951: 137; SK-MEL-5: 173; WM115: 167; WM1745: 135; C32: 72.7; MEL-HO: 81.6; COLO 800: 280
- SNS-314 + OSI-906 : G-361: 115; RPMI-7951: 400; SK-MEL-5: 46.4; WM115: 135; WM1745: 165; C32: 71.2; MEL-HO: 163; COLO 800: 273
- pioglitazone + OSI-906 : G-361: 241; RPMI-7951: 65.2; SK-MEL-5: 72.3; WM115: 200; C32: 90.0; MEL-HO: 247; COLO 800: 128
- crizotinib + sorafenib : G-361: 175; RPMI-7951: 138; SK-MEL-5: 137; WM115: 102; WM1745: 254; C32: 94.5; MEL-HO: 70.4; COLO 800: 59.3
- lenalidomide + sorafenib : G-361: 124; RPMI-7951: 159; SK-MEL-5: 24.8; WM115: 39.2; WM1745: 70.5; C32: 27.1; MEL-HO: 198; COLO 800: 110

The last 4 entries again:

| Drugs | G-361 | RPMI-7951 | SK-MEL-5 | WM115 | WM1745 | C32 | MEL-HO | COLO 800 |
|---|---|---|---|---|---|---|---|---|
| SNS-314 + OSI-906 | 115 | 400 | 46.4 | 135 | 165 | 71.2 | 163 | 273 |
| pioglitazone + OSI-906 | 241 | 65.2 | 72.3 | 200 | - | 90.0 | 247 | 128 |
| crizotinib + sorafenib | 175 | 138 | 137 | 102 | 254 | 94.5 | 70.4 | 59.3 |
| lenalidomide + sorafenib | 124 | 159 | 24.8 | 39.2 | 70.5 | 27.1 | 198 | 110 |

Values as published with doi:10.1371/journal.pone.0140310, rounded.